Assay results as given in PubChem BioAssay AID2685 (National Center for Advancing Translational Sciences (NCATS), 2010).
Some of the results follow. Shown are side measurements of this screen, not its main read-out; they come without a call. Compounds called inactive in the main read-out are mostly missing here. The note in brackets gives the kind of curve behind each potency; many fits are weak.

Assay: qHTS Assay for Lipid Storage Modulators in Drosophila S3 Cells;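 on cell number change: cells counted by Cell Tracker Red CMTPX staining in the red channel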
Settings: BODIPY lipid droplet fluorescence, 18-24 h; for cell number change: measured here: cell count max response, cells fed with added oleic acid
Outline: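 Drosophila S3 cells got compounds at several concentrations plus oleic acid (400 uM solution). Laser-scanning cytometry with 488 nm excitation read lipid droplets at 500-530 nm and cells at 575-640 nm. Percent activity was relative to 20 uM Triacsin C.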

[1] = measured here: lipid fluorescence (Fed channel) AC50, cells fed with added oleic acid
[2] = measured here: cell number channel AC50, cells fed with added oleic acid

Row | SMILES | cell number change | AC50 [1] | AC50 [2]
1 | CCOC(=O)C1CCN(C(=O)CN2C(=O)NC3(CCCCC3)C2=O)CC1 | -12.9% | 0.92 µM [falling, full curve, poor fit] | –
2 | COc1cc(/C=N/NC(=O)c2ccc3c(c2)OCCO3)c(Br)c(Br)c1O | 1.98% | – | –
3 | O=C1NC(=O)/C(=C/c2ccc(-c3cc(C(=O)O)ccc3Cl)o2)S1 | -4.4% | 20.6 µM [falling, single point] | –
4 | c1ccc(COc2ccc(OCCCN3CCCC3)cc2)cc1 | – | 20.6 µM [falling, single point] | –
5 | Cc1oc(-c2ccc(Cl)cc2)nc1CS(=O)CC(=O)NCCCN1CC(C)CC(C)C1 (stereo unspecified) | 6.87% | 18.4 µM [rising, partial curve] | –
6 | CCn1c(C)cs/c1=N\S(=O)(=O)c1ccccc1 | 12.4% | – | –
7 | CCCCn1c(SCC(=O)N2CC(C)CC(C)C2)nc2cc(S(N)(=O)=O)ccc21 (stereo unspecified) | -22.4% | – | –
8 | CCCn1nc(C(=O)Nc2nnc(C3CC3)s2)c2ccccc2c1=O | 9.03% | – | –
9 | Cc1nc(SCC(N)=O)c([N+](=O)[O-])[nH]1 | 13.3% | 16.4 µM [rising, single point] | –
10 | Cc1ccccc1NC(=O)NCCCN1CCCC1 | 5.81% | 6.51 µM [falling, single point] | –
11 | O=S(=O)(c1cc(Cl)cc(Cl)c1O)N1CCC2(CC1)OCCO2 | -1.05% | – | –
12 | O=C(Nc1cc(Cl)ccc1N1CCCC1)C1=NN(c2ccccc2)C(=O)CC1 | -20.7% | – | –
13 | CC(C)n1c(SCC(=O)Nc2ccccc2N2CCOCC2)nc2c1c(=O)n(C)c(=O)n2C | -31.6% | 16.4 µM [falling, single point] | 29.1 µM [falling, single point]
14 | O=C(C1CCCO1)N1CCN(C(=S)Nc2ccc(F)c(Cl)c2)CC1 (stereo unspecified) | -28% | 29.1 µM [falling, single point] | –
15 | COC(=O)c1ccc(NC(=S)NC(=O)c2c(-c3ccccc3)noc2C)cc1 | 12.7% | 6.51 µM [falling, single point] | 6.51 µM [falling, single point]
16 | O=C(CSc1ccc(-c2ccccn2)nn1)Nc1nccs1 | 21% | 0.13 µM [rising, full curve, poor fit] | 0.0058 µM [rising, full curve, poor fit]
17 | COc1cc2c(cc1OC)CN(CC(=O)Nc1cccc(C(F)(F)F)c1)CC2 | -32.7% | 32.6 µM [falling, single point] | 29.1 µM [falling, single point]
18 | O=C(Nc1cccc(OCC(=O)N2CCOCC2)c1)c1cccc([N+](=O)[O-])c1 | 24.2% | – | –
19 | NC(=O)c1cc([N+](=O)[O-])c(Cl)cc1NCc1ccncc1 | 15.2% | 0.326 µM [falling, single point] | –
20 | C/C(=N\NC(=O)c1cc(-c2ccc(C)s2)nc2ccccc12)c1cccnc1 | 8.78% | – | –
21 | O=C1CC(c2ccccc2)Cc2nc3nc(C(F)(F)F)nn3cc21 (stereo unspecified) | – | 2.91 µM [rising, partial curve] | –
22 | COc1cccc(NC(=O)CN(C)C(C)C(=O)Nc2ccc(C(C)=O)cc2)c1 (stereo unspecified) | – | 2.59 µM [rising, single point] | 6.51 µM [rising, single point]

Single records, as listed above.
`O=C(CSc1ccc(-c2ccccn2)nn1)Nc1nccs1` as listed: cell number change: 21%; AC50 [1]: 0.13 µM [rising, full curve, poor fit]; AC50 [2]: 0.0058 µM [rising, full curve, poor fit]
`CCCn1nc(C(=O)Nc2nnc(C3CC3)s2)c2ccccc2c1=O` as listed: cell number change: 9.03%

Remaining list, next part.

Row | SMILES | cell number change | AC50 [1] | AC50 [2]
23 | COC(=O)c1sc(NC(=O)/C=C/c2ccc(C)cc2)nc1C | – | 1.16 µM [rising, full curve, poor fit] | 0.00461 µM [falling, full curve, poor fit]
24 | COc1ccc(CCNC(=O)COC(=O)C23CC4CC(CC(C4)C2)C3)cc1 | -21.7% | 13 µM [falling, partial curve] | –
25 | COc1ccc(S(=O)(=O)N2C(=O)/C(=C3\SC(N)=NC3=O)c3ccccc32)cc1 | -5.16% | 3.66 µM [falling, single point] | –
26 | Cc1cccn2c(=O)nc(SCC(=O)NC3CCCC3)nc12 | 32.7% | 1.46 µM [rising, partial curve] | 0.58 µM [rising, full curve, poor fit]
27 | O=C(COC(=O)c1ccc(-c2ccc([N+](=O)[O-])cc2)o1)NC(=O)NC12CC3CC(CC(C3)C1)C2 | -2.82% | 18.4 µM [rising, partial curve, poor fit] | –
28 | Cc1ccc(C(=O)NNC(=O)C2CCN(S(=O)(=O)c3ccc(Cl)cc3)CC2)cc1 | -13.7% | 0.82 µM [falling, full curve, poor fit] | –
29 | CCc1ccccc1NC(=S)N1CCCCCC1 | 12.7% | – | –
30 | COc1ccc(S(=O)(=O)N2CCN(C)CC2)cc1NC(=O)c1ccccc1 | 7.26% | – | –
31 | Cc1ccc(NC(=O)CN(C)S(=O)(=O)c2cccc3cccnc23)cc1F | -9.43% | – | 1.46 µM [falling, partial curve]
32 | CCOc1ccc(N2CCCn3c2nc2c3c(=O)n(CCc3ccccc3)c(=O)n2C)cc1 | -0.673% | – | –
33 | Clc1ccccc1CSc1nnc(-c2ccco2)c(-c2ccco2)n1 | -16% | – | –
34 | COc1cccc(NC(=O)c2ccccc2Oc2ccccc2)c1 | 24.3% | – | –
35 | Cc1cc(C)cc(NC(=O)c2sc3nc4n(c(=O)c3c2C)CCC4)c1 | – | 11.6 µM [falling, partial curve] | –
36 | COc1ccccc1CNC(=O)COC(=O)Cc1ccsc1 | 66.8% | – | –
37 | CN(C)C(CNC(=O)c1ccc(OCc2cn3ccccc3n2)cc1)c1ccco1 (stereo unspecified) | -1.94% | – | –
38 | COC(=O)C1=C(CS(=O)(=O)c2ccccc2)NC(=O)NC1c1ccc(O)cc1 (stereo unspecified) | -2.99% | 23.1 µM [falling, single point] | –
39 | CC(C)OC(=O)c1ccc(NC(=O)c2cccc(-n3cnnn3)c2)cc1 | 0.478% | – | –
40 | COc1ccc(-c2csc(N3CCN(Cc4ccc5c(c4)OCO5)CC3)n2)cc1 | -6.88% | 6.51 µM [rising, single point] | –
41 | O=[N+]([O-])c1cc2oc3c(c2c(C=NCc2ccncc2)c1O)CCCC3 | 1.11% | – | –
42 | Cc1ccc(-c2nc3cc(NS(=O)(=O)c4ccc(C)cc4)ccc3o2)cc1 | -39.5% | – | 20.6 µM [falling, single point]
43 | O=C(Nc1ccc(Br)cc1)C1CCCN1S(=O)(=O)c1cccs1 (stereo unspecified) | -12.9% | 0.13 µM [falling, full curve, poor fit] | –
